Measurements reported in PubChem BioAssay AID504774 (Drosophila RNAi Screening Center, 2011).
The screen tested about 23,000 reagents; shown is a random part of those that have a named target and a result. 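Values are quantile-normalised luminescence on an arbitrary scale; higher means more cells surviving MMS.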 Not all columns of the deposit are shown.

- Screen: 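Fly genes whose loss alters survival after alkylation damage to DNA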 (primary screen)
- Cells: Drosophila Kc167 cells
- Reagents: long dsRNA against Drosophila genes, about 0.25 µg dsRNA per well
- Timing: about 6 days: 3 days knock-down, then 3 days with or without MMS
- Challenge: methyl methanesulphonate 0.004% (w/v) for 3 days after knock-down
- Read-out: 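ATP-dependent luminescence as a measure of live cells in MMS-exposed wells, quantile normalised within each plate, with replicate values also given as a mean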
- Reading the numbers: mean viability with MMS: higher = more surviving cells after MMS

mean viability with MMS, by gene and reagent
Nelf-E (Negative elongation factor E): DRSC10567 3.57e6
CG2127: DRSC06821 3.58e6
Or67b (Odorant receptor 67b): DRSC11241 3.81e6
CG6843: DRSC10725 3.38e6
CG7488: DRSC16250 3.44e6
Sema5c (Semaphorin 5c): DRSC11279 3.54e6
Mppe (Metallophosphoesterase): DRSC07296 3.60e6
AlaRS-m (Alanyl-tRNA synthetase, mitochondrial): DRSC09660 3.56e6
CG13367: DRSC18485 3.64e6; DRSC18486 3.63e6
Wee1 (Wee1 kinase): DRSC03635 3.61e6; DRSC23318 3.70e6
CG4679: DRSC06880 3.53e6
MED21 (Mediator complex subunit 21): DRSC20932 3.61e6
flr (flare): DRSC09787 3.38e6
aly (always early): DRSC08707 3.61e6; DRSC21784 3.29e6
CG14691: DRSC14914 3.46e6
Lerp (lysosomal enzyme receptor protein): DRSC14750 3.41e6; DRSC14751 3.78e6; DRSC16030 3.65e6; DRSC16031 3.74e6
CG5255: DRSC15754 3.56e6
kn (knot): DRSC05505 3.63e6; DRSC05507 3.74e6; DRSC06196 3.43e6; DRSC07637 3.48e6; DRSC21533 3.59e6
CG5068: DRSC10476 3.67e6
ND-18 (NADH dehydrogenase (ubiquinone) 18 kDa subunit): DRSC19441 3.51e6
GNBP1 (Gram-negative bacteria binding protein 1): DRSC11169 3.58e6; DRSC21836 3.34e6
Caf1-180 (Chromatin assembly factor 1, p180 subunit): DRSC17807 3.47e6
Art1 (Arginine methyltransferase 1): DRSC16063 3.48e6
CG2794: DRSC00534 3.52e6
CG13024: DRSC09904 3.63e6
CG32652 (retired record): DRSC18942 3.53e6; DRSC22662 3.53e6
CG14315: DRSC14794 3.62e6
CG7567: DRSC16258 3.41e6
CG8202: DRSC16396 3.70e6
CG17230: DRSC15203 3.60e6
CG1631: DRSC20535 3.50e6
Spp (Signal peptide peptidase): DRSC00328 3.80e6
CG11882: DRSC14425 3.50e6
CG31191: DRSC13455 3.60e6; DRSC15214 3.55e6; DRSC15215 3.24e6
